Source: PubChem BioAssay AID1224904 (Broad Institute, 2016).

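293T-iDUX4 cells carrying a ZSCAN4-driven Gaussia luciferase and a tet-on Italica luciferase control; the gap between the two luminescence signals is read after 24 h.
The test concentration is not given here.
Percent difference between the Gaussia and Italica channels; more negative values mean more selective suppression of the DUX4 reporter, and higher values mean less activity.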

Values are in %.
The controls that fix the scale are not given here.
Common to all entries: measured here: selective DUX4 reporter inhibition.
This is a side read-out of the assay, for part of the compounds, not drawn at random.

* COc1cccc(S(=O)(=O)Nc2ccc3c(c2)[C@@H]2C[C@@H](CC(=O)NC4CCCCC4)O[C@@H](CO)[C@@H]2O3)c1 | Gaussia minus Italica difference -0.2487%
* C/C=C/c1ccc(C2[C@@H]3CN(S(=O)(=O)c4ccccc4)C[C@H]2N3)cc1 (stereo partly shown) | Gaussia minus Italica difference -10.03%
* COc1ccc(S(=O)(=O)N2C[C@@H](O)COC[C@@H]3O[C@@H](CC(=O)NCc4ccc(Cl)c(Cl)c4)CC[C@H]32)cc1 | Gaussia minus Italica difference -5.807%
* COc1ccc2c3c(n(C)c2c1)[C@@H](CO)N(Cc1ccccc1)CC31CCN(S(=O)(=O)c2ccc(C)cc2)CC1 | Gaussia minus Italica difference -0.6797%
* C[C@H]1CN([C@@H](C)CO)C(=O)c2c(c3ccccc3n2C)-c2ccccc2CO[C@@H]1CN(C)C(=O)C1CC1 | Gaussia minus Italica difference -13.23%
* COc1ccc2c3c([nH]c2c1)[C@H](CO)N(Cc1ccccc1)CC31CN(S(C)(=O)=O)C1 | Gaussia minus Italica difference -8.858%
* COc1ccc2c3c(n(C)c2c1)[C@H](CO)N(Cc1ccccc1)CC31CCN(C(=O)c2ccccc2F)CC1 | Gaussia minus Italica difference -22.64%
* O=C(c1cccc(F)c1)N1CCCCN2[C@H](C1)[C@H](c1ccc(C#CC3(O)CCCC3)cc1)[C@@H]2CO | Gaussia minus Italica difference -15.33%
* O=C(C[C@@H]1CC[C@@H]2[C@H](COC[C@@H](O)CN2Cc2ccc(Oc3ccccc3)cc2)O1)N1CCCCC1 | Gaussia minus Italica difference -11.1%
* COCCN(C[C@H]1[C@H](c2ccccc2)[C@@H](CO)N1C(=O)C1CCC1)C(C)=O | Gaussia minus Italica difference -11.5%
* COc1ccc(-c2ccccc2[C@H]2[C@@H](C#N)N(C(=O)C3CCCCC3)[C@H]2CO)cc1 | Gaussia minus Italica difference -20.86%
* O=C(Nc1ccc(F)cc1)N1C[C@H]2[C@@H](c3ccccc31)[C@@H](CO)N2Cc1ccccc1Cl | Gaussia minus Italica difference 2.18%
* CN1c2ccc(C#Cc3cccnc3)cc2[C@@H]2[C@@H](CCN2C(=O)Cc2cccnc2)[C@H]1CO | Gaussia minus Italica difference -6.72%
* COc1ccc(-c2ccc([C@@H]3[C@@H](CO)N4CCCCN(C(=O)c5ccc(F)cc5)C[C@@H]34)cc2)cc1 | Gaussia minus Italica difference -1.454%
* O=C([C@@H]1N[C@@H]2c3ccc(C4=CCCCC4)c(=O)n3C[C@@H]2[C@H]1CO)N1CCC(Cc2ccccc2)CC1 | Gaussia minus Italica difference 1.291%
* COc1ccccc1-c1ccc2c(c1)[C@@H]1[C@@H](CCN1S(=O)(=O)c1cccc(F)c1)[C@H](CO)N2 | Gaussia minus Italica difference 8.63%
* O=C(C[C@H]1CC[C@@H]2[C@H](COC[C@H](O)CN2Cc2ccc(Oc3ccccc3)cc2)O1)N1CCN(c2ccccc2)CC1 | Gaussia minus Italica difference -5.914%
* CC(C)NC[C@H]1[C@@H](c2ccc(C3=CCCCC3)cc2)[C@@H](CO)N1C(=O)NC(C)C | Gaussia minus Italica difference -1.166%
* O=C(c1ccc(F)cc1)N1CCCCN2[C@H](CO)[C@H](c3ccc(-c4ccccc4)cc3)[C@H]2C1 | Gaussia minus Italica difference -3.393%
* O=C(C[C@H]1CC[C@@H]2[C@H](COC[C@H](O)CN2CCc2ccccc2)O1)N1CCC(Cc2ccccc2)CC1 | Gaussia minus Italica difference -12.55%
* CN1c2ccc(-c3ccc(F)cc3)cc2[C@H]2[C@H](CCN2C(=O)Nc2cc(F)ccc2F)[C@H]1CO | Gaussia minus Italica difference 10.45%
* O=C(NC1CCCC1)N1CC(=O)N2[C@H](CO)[C@H](c3ccc(C4=CCCCC4)cc3)[C@@H]2C1 | Gaussia minus Italica difference 1.218%
* C[C@H]1CN([C@@H](C)CO)C(=O)c2c(c3ccccc3n2C)-c2ccccc2CO[C@@H]1CN(C)C(=O)NC1CCCCC1 | Gaussia minus Italica difference 6.162%
* C[C@H]1CN([C@@H](C)CO)C(=O)c2c(c3ccccc3n2C)-c2ccccc2CO[C@H]1CN(C)C(=O)c1cc(Cl)cc(Cl)c1 | Gaussia minus Italica difference 1.259%
* CN(C)C(=O)c1cccc(-c2ccc3c(c2)[C@@H]2[C@@H](CCN2C(=O)c2ccncc2)[C@@H](CO)N3C)c1 | Gaussia minus Italica difference -21.25%
* C[C@H]1CN([C@@H](C)CO)C(=O)c2c(c3ccccc3n2C)-c2ccccc2CO[C@H]1CN(C)C(=O)[C@H](Cc1ccccc1)N(C)C | Gaussia minus Italica difference -3.644%
* O=C(C[C@@H]1CC[C@@H]2[C@H](COC[C@@H](O)CN2C(=O)Nc2ccc(Cl)c(Cl)c2)O1)NCc1ccccc1 | Gaussia minus Italica difference -1.966%
* COCC(=O)N1CCC2(CC1)CN(Cc1ccccc1Cl)[C@@H](CO)c1c2c2ccc(OC)cc2n1C | Gaussia minus Italica difference -2.331%

Some entries from above, unchanged:

* COc1ccc(-c2ccc([C@@H]3[C@@H](CO)N4CCCCN(C(=O)c5ccc(F)cc5)C[C@@H]34)cc2)cc1 | Gaussia minus Italica difference -1.454%
* COc1ccccc1-c1ccc2c(c1)[C@@H]1[C@@H](CCN1S(=O)(=O)c1cccc(F)c1)[C@H](CO)N2 | Gaussia minus Italica difference 8.63%
* C[C@H]1CN([C@@H](C)CO)C(=O)c2c(c3ccccc3n2C)-c2ccccc2CO[C@H]1CN(C)C(=O)[C@H](Cc1ccccc1)N(C)C | Gaussia minus Italica difference -3.644%